Source: the supplement of paper PMC6331611
Values joined by “and” are separate entries in the source; they are usually repeats but may differ in a detail not shown here. Identical values can stand only once. ± gives the standard deviation of the averaged measurements. Whole data set: some 1,600 compounds, median “normalized intracellular growth (luminescence, IQM-normalized) in RAW264.7 macrophages” near 1, cut for the lowest 2% near 0.43. The list shows a part of the results.

Test system: Salmonella enterica serovar Typhimurium SL1344
Experiment: normalized intracellular growth (luminescence, IQM-normalized) in RAW264.7 macrophages (fraction of plate interquartile mean); higher = more bacterial growth (less inhibition)
Details: 10 µM

SMILES | normalized intracellular growth (time point: T3 (3 h)) | normalized intracellular growth (time point: Tfinal (~6 h))
CCN(CC)CCOc1ccc(C(=C(Cl)c2ccccc2)c2ccccc2)cc1 | 0.97 ± 0.059 | 0.744 ± 0.041
CCCCCOC(=O)Nc1nc(=O)n([C@@H]2O[C@H](C)[C@@H](O)[C@H]2O)cc1F | 0.864 ± 0.018 | 0.799 ± 0.067
CCCCNc1ccc(C(=O)OCCN(C)C)cc1 | 1.04 ± 0.075 | 0.92 ± 0.047
CN1CCOC(c2ccccc2)c2ccccc2C1 (stereo not drawn) | 0.892 ± 0.067 | 0.936 ± 0.031
CN1CCC(=C2c3ccccc3CCc3sccc32)CC1 | 0.997 ± 0.065 | 1.15 ± 0.2
O=C1c2cccc(O)c2C(=O)c2c(O)cccc21 | 1.05 ± 0.039 | 1.02 ± 0.05
CCOC(N)=O | 1.06 ± 0.039 | 0.715 ± 0.14
CC(C)NNC(=O)c1ccncc1 | 1.05 ± 0.07 | 0.891 ± 0.23
CSCC[C@H](NC(=O)[C@H](Cc1c[nH]c2ccccc12)NC(=O)CCNC(=O)OC(C)(C)C)C(=O)N[C@@H](CC(=O)O)C(=O)N[C@@H](Cc1ccccc1)C(N)=O | 1 ± 0.04 | 0.827 ± 0.23
CCN(CC)CCNC(=O)c1cc(Br)c(N)cc1OC | 1.06 ± 0.055 | 1.18 ± 0.045
OC(CCN1CCCCC1)(c1ccccc1)c1ccccc1 | 0.967 ± 0.046 | 1.14 ± 0.09
CCCCC(=O)N(Cc1ccc(-c2ccccc2-c2nnn[nH]2)cc1)[C@H](C(=O)O)C(C)C | 0.881 ± 0.033 | 0.239 ± 0.016
C[C@H](CCC(=O)O)[C@H]1CC[C@H]2[C@@H]3C(=O)C[C@@H]4CC(=O)CC[C@]4(C)[C@H]3CC(=O)[C@]12C | 1.02 and 1.03 | 0.89 and 0.937
CO[C@H]1C[C@H](O[C@@H]2/C(C)=C/C[C@@H]3C[C@@H](C[C@]4(CC[C@H](C)[C@@H](C5CCCCC5)O4)O3)OC(=O)[C@@H]3C=C(C)/C(=N/O)[C@H]4OC/C(=C\C=C\[C@@H]2C)[C@]43O)O[C@@H](C)[C@@H]1O | 1.01 ± 0.064 | 1.16 ± 0.094
CCOC(=O)C1=C(C)NC(C)=C(C(=O)OC)C1c1cccc(Cl)c1Cl (stereo not drawn) | 0.889 ± 0.021 | 1.02 ± 0.17
O=C1c2c(O)ccc(O)c2C(=O)c2c(NCCNCCO)ccc(NCCNCCO)c21 | 0.947 ± 0.051 | 1.07 ± 0.24
O=C(NC(Cc1cc(=O)[nH]c2ccccc12)C(=O)O)c1ccc(Cl)cc1 (stereo not drawn) | 0.942 ± 0.038 | 1.08 ± 0.085
OC[C@H]1O[C@@H](O[C@H]2[C@H](O)[C@@H](O)C(O)O[C@@H]2CO)[C@H](O)[C@@H](O)[C@H]1O (stereo partly drawn) | 1.05 ± 0.022 | 1.04 ± 0.026
COC(=O)/C=C/C(=O)OC | 0.935 ± 0.047 | 0.937 ± 0.028
CC(C)(C)NC[C@H](O)COc1cccc2c1CCCC2=O | 0.97 ± 0.046 | 1.08 ± 0.088
C[N+](C)(C)CCOC(N)=O | 1.05 ± 0.049 | 1.25 ± 0.18
CN(C)CCc1c[nH]c2ccc(CS(=O)(=O)N3CCCC3)cc12 | 0.989 ± 0.027 | 1.14 ± 0.15

SMILES | normalized intracellular growth (time point: T3 (3 h)) | normalized intracellular growth (time point: Tfinal (~6 h))
O=C(O)CCC(=O)c1ccc(-c2ccccc2)cc1 | 0.986 ± 0.022 | 0.929 ± 0.033
CN1CCN2c3ccccc3Cc3ccccc3C2C1 (stereo not drawn) | 1.03 ± 0.017 | 0.916 ± 0.039
CCC(C)(C)C(=O)O[C@H]1C[C@@H](C)C=C2C=C[C@H](C)[C@H](CC[C@@H]3C[C@@H](O)CC(=O)O3)[C@H]21 | 1.05 ± 0.076 | 1.19 ± 0.1
C[C@@H]1CN(c2c(F)c(F)c3c(=O)c(C(=O)O)cn(C4CC4)c3c2F)C[C@H](C)N1 | 0.986 ± 0.025 | 0.0257 ± 0.0074
CCOC(=O)CC(=O)N1CCSC1COc1ccccc1OC (stereo not drawn) | 1.11 ± 0.046 | 1.08 ± 0.093
O=[N+]([O-])c1ccc(O)c2ncccc12 | 1.04 ± 0.11 | 1.133 ± 0.011
CC(O)(CC(=O)O)CC(=O)O | 0.971 ± 0.034 | 1.02 ± 0.061
CCCc1nn(C)c2c(=O)[nH]c(-c3cc(S(=O)(=O)N4CCN(C)CC4)ccc3OCC)nc12 | 0.968 ± 0.14 | 1.21 ± 0.12
CCCNC(C)(C)COC(=O)c1ccccc1 | 0.828 ± 0.083 | 0.1174 ± 0.0011
CCC1(C)CC(=O)NC1=O (stereo not drawn) | 1.02 ± 0.052 | 1.08 ± 0.11
CC(=O)Nc1ccc(OC(C)=O)cc1 | 0.987 ± 0.072 | 1.16 ± 0.066
NC1CCN(c2c(F)cc3c(=O)c(C(=O)O)cn(C4CC4)c3c2Cl)C1 (stereo not drawn) | 1.49 ± 0.071 | 0.00632 ± 0.00035
CC(NCCc1ccc(O)cc1)C(O)c1ccc(O)cc1 (stereo not drawn) | 1.03 ± 0.081 | 1.13 ± 0.11
CCc1nn(CCCN2CCN(c3cccc(Cl)c3)CC2)c(=O)n1CCOc1ccccc1 | 0.988 ± 0.036 | 0.955 ± 0.053
O=S(=O)(c1cccc2cnccc12)N1CCCNCC1 | 1.02 ± 0.035 | 1.13 ± 0.067
Nc1nc(/C(=C/CC(=O)O)C(=O)N[C@@H]2C(=O)N3C(C(=O)O)=CCS[C@H]23)cs1 | 0.951 ± 0.059 | 0.0259 ± 0.0032
CN(C)CCOC(=O)C(c1ccccc1)C1(O)CCCC1 (stereo not drawn) | 1.07 ± 0.032 | 0.963 ± 0.016
Nc1ccc(/N=N/c2ccccc2)c(N)n1 | 0.941 ± 0.071 | 0.954 ± 0.2
C[C@H](N[C@@H](CCc1ccccc1)C(=O)O)C(=O)N1Cc2ccccc2C[C@H]1C(=O)O | 1.03 ± 0.079 | 1.08 ± 0.12
CCC(=O)O[C@]1(C(=O)SCF)[C@H](C)C[C@H]2[C@@H]3C[C@H](F)C4=CC(=O)C=C[C@]4(C)[C@@]3(F)[C@@H](O)C[C@@]21C | 0.969 ± 0.033 | 0.815 ± 0.1
O=C(O)c1ccccc1Nc1cccc(C(F)(F)F)c1 | 0.939 ± 0.071 | 0.864 ± 0.15
OCCc1ccccc1 | 0.981 ± 0.058 | 0.955 ± 0.12
